Data from PubChem BioAssay AID2685 (National Center for Advancing Translational Sciences (NCATS), 2010).
Several values for one entry are separate records, joined by “and”; a condition that tells them apart may be missing. Identical values can stand only once. The list shows a part of the results. Shown are side measurements of this screen, not its main read-out; they come without a call. Most of these compounds were active or inconclusive in the main read-out, so they are no random draw. Potencies come from curve fits of mixed quality, noted in brackets.

Test: qHTS Assay for Lipid Storage Modulators in Drosophila S3 Cells;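 on cell number change: cells counted by Cell Tracker Red CMTPX staining in the red channel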
Conditions: BODIPY lipid droplet fluorescence, 18-24 h; for cell number change: measured here: cell count max response, cells fed with added oleic acid
Method in brief: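 Laser-scanning cytometry quantifies lipid droplet accumulation (500–530 nm total intensity; droplet/cell object ratio) in oleic acid-fed (400 uM added) Drosophila S3 cells treated with a concentration series. 20 uM Triacsin C defined 100% inhibition.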

[1] = measured here: lipid fluorescence (Fed channel) AC50, cells fed with added oleic acid
[2] = measured here: cell number channel AC50, cells fed with added oleic acid

| Compound | cell number change | AC50 [1] | AC50 [2] |
| --- | --- | --- | --- |
| O=C(OCn1nnc2ccccc2c1=O)c1ccc2ccccc2n1 | 2.92% | – | – |
| COc1ccc(CNC(=O)COC(=O)CN2C(=O)NC3(CCCC3)C2=O)cc1 | 17.6% | 6.51 µM [rising, single point] | – |
| COCCNC(=O)C(OC(=O)C1=Cc2ccccc2OC1)C(C)C (centres undefined) | 13.7% | 20.6 µM [rising, single point] | – |
| COc1ccc(CCN2C(=O)C3C4CC(C5C(C(=O)N/N=C\c6ccc(Cl)cc6)=NOC45)C3C2=O)cc1OC (centres undefined) | 9.35% | – | 0.13 µM [falling, full curve, poor fit] |
| CC(C)(C)S(=O)(=O)/C(C#N)=N/Nc1ccc(S(C)(=O)=O)cc1 | -52.9% | 23.1 µM [falling, single point] | 1.84 µM [falling, full curve] |
| CC(=O)OCCN(CCOC(C)=O)c1c(C)[nH]c(=O)[nH]c1=O | 13.3% | 6.51 µM [falling, single point] | – |
| Cc1ccc(C2=NS(=O)(=O)N(C)C(C(=O)NC(C)c3ccccc3)=C2)cc1 (centres undefined) | 7.2% | 20.6 µM [falling, partial curve] | – |
| COC(=O)CNC(=O)Cn1nc(C)c([N+](=O)[O-])c1C | – | 5.8 µM [falling, single point] | 6.51 µM [falling, single point] |
| CC(C)n1cc(C(=O)N2CCCC(Nc3ccc(F)c(F)c3)C2)cn1 (centres undefined) | 64% | – | 29.1 µM [rising, single point] |
| O=C(Nc1ccncc1)C1CCN(S(=O)(=O)c2ccc(Cl)cc2)CC1 | 22.3% | 1.03 µM [rising, partial curve] | – |
| O=C(CN1CCN(C(=O)c2ccccc2)CC1)Nc1cccc(S(=O)(=O)N2CCCC2)c1 | 10.4% | – | – |
| CCOC(=O)/C=C/C(=O)Nc1cccc([N+](=O)[O-])c1 | -60.4% | 29.1 µM [falling, single point] | 23.1 µM [falling, single point] |
| OC(COc1cccc2ccccc12)CN1CCCC1 (centres undefined) | -5.86% | 29.1 µM [rising, single point] | – |
| COc1ccc(OC)c(C2CC(=O)N3CN(c4cccc(Cl)c4C)CSC3=C2C#N)c1 (centres undefined) | -2.4% | – | – |
| N#C/C(=C\c1cccc([N+](=O)[O-])c1)c1ccccn1 | -4.81% | 3.66 µM [rising, partial curve] | – |
| O=C(NCc1cccnc1)C(=O)Nc1nccs1 | 46% | – | – |
| COc1ccc(C(=O)NCCS(=O)(=O)N2CCCCCC2)cc1 | – | 0.092 µM [falling, full curve, poor fit] | – |
| O=C(Nc1cccc(C(F)(F)F)c1)C1CC(=O)N(CCc2ccccc2)C1 (centres undefined) | 35% | 0.13 µM [rising, full curve, poor fit] | 29.1 µM [rising, single point] |
| O=C(c1cc(Br)ccc1O)N1CCN(S(=O)(=O)Cc2ccccc2)CC1 | -72.9% | 29.1 µM [falling, single point] | 20.6 µM [falling, single point] |
| CCC(C)NC(=O)C1CCC(=O)N1CCc1ccccc1 (centres undefined) | -27.3% | 4.61 µM [falling, full curve, poor fit] | 4.11 µM [falling, full curve, poor fit] |

| Compound | cell number change | AC50 [1] | AC50 [2] |
| --- | --- | --- | --- |
| O=C(N/N=C/c1ccc(O)c(O)c1O)/C(=C/c1ccc([N+](=O)[O-])cc1)NC(=O)c1ccccc1 | 32.7% | 4.61 µM [rising, single point] | 4.11 µM [rising, partial curve, poor fit] |
| CCOC(=O)c1oc2nc3c(cc2c1N)COC(C)(C)C3 | 35.4% | 0.259 µM [rising, full curve, poor fit] | 1.84 µM [rising, full curve] |
| CC(C)(C)c1ccc(/C=N/NC(=O)Cc2c[nH]c3ccccc23)cc1 | -92% | – | 29.1 µM [falling, single point] |
| C=CCNC(=S)NNC(=O)c1cc(-c2cccnc2)nc2ccccc12 | -18.8% | 29.1 µM [rising, single point] | – |
| Cc1cccc(/N=C/c2c(O)n(Cc3ccc4c(c3)OCO4)c(=O)c3ccccc23)n1 | – | 0.00461 µM [rising, full curve, poor fit] | 0.058 µM [rising, full curve] |
| Cc1ccc(S(=O)(=O)N2CCN(C(=O)CCNC(=O)c3ccccc3Cl)CC2)cc1 | -94.5% | – | 29.1 µM [falling, single point] |
| CC(=O)C1=C(C)NC(=O)NC1c1cc(Br)ccc1OCC(N)=O (centres undefined) | -11.7% | – | – |
| COC(=O)c1ccc(C2c3[nH]c4ccccc4c3C[C@H]3C(=O)N(C4CCN(Cc5ccccc5)CC4)CC(=O)N23)cc1 (some centres undefined) | -0.917% | – | – |
| CCOc1ccc(CCNC(=O)CS(=O)Cc2nc(-c3ccc(OC)c(OC)c3)oc2C)cc1OCC (centres undefined) | – | – | 1.64 µM [falling, partial curve] |
| O=C(c1oc(=O)c2ccccc2c1-c1ccccc1)N1CCC(O)CC1 | 1.3% | 1.16 µM [falling, single point] | – |
| Cc1cccc(C)c1OCc1cc(C(=O)NCc2ccc(Cl)s2)no1 | -0.33% | – | – |
| CCCc1cc(=O)oc2cc(C)cc(OCC(=O)N3CCC(C(N)=O)CC3)c12 | 30.7% | – | 0.651 µM [rising, full curve, poor fit] |
| COc1cccc(CC(=O)OCC(=O)NCC(=O)Nc2cccc(C)c2C)c1 | -15.6% | – | – |
| COc1ccc(NS(=O)(=O)c2cccc(C(=O)N3CCC3)c2)cc1 | 33.3% | – | 10.3 µM [rising, partial curve] |
| Cc1ccc(S(=O)(=O)NC(CC(C)C)C(=O)N2CC(C)OC(C)C2)cc1 (centres undefined) | 9.19% | – | – |
| Cc1ccc(C)c(SCC(=O)OCC(=O)N2CC(C)OC(C)C2)c1 (centres undefined) | -32.6% | 4.61 µM [falling, full curve] | – |
| CCc1ccc(OCC(O)Cn2c(N3CCCCC3)nc3c2c(=O)[nH]c(=O)n3C)cc1 (centres undefined) | -22.6% | 2.06 µM [rising, partial curve] | – |
| CCc1cc(=O)oc2cc(OC3CCCCC3=O)ccc12 (centres undefined) | 27.9% | 29.1 µM [falling, partial curve] | – |
| COc1ccc(C(=O)c2sc(Nc3ccccc3)nc2C)cc1 | 10.8% | 2.59 µM [rising, partial curve] | – |
| CC(C)(C)C(=O)[C@@H]1[C@@H]2C(=O)N(C3CCCCC3)C(=O)[C@@H]2[C@H]2c3ccccc3C=CN12 | 1.76% | 0.13 µM [falling, full curve, poor fit] | – |

| Compound | cell number change | AC50 [1] | AC50 [2] |
| --- | --- | --- | --- |
| Cc1sc2nc(SCC(=O)NCc3ccco3)n(-c3ccccc3)c(=O)c2c1C | -0.388% | 3.26 µM [rising, single point] | – |
| O=C(COc1ccc(Cl)cc1)N1CCN(Cc2ccc3c(c2)OCO3)CC1 | 47.4% and 28.5% | – | 1.46 µM [rising, full curve] |
| COc1ccc(OC)c(NC(=O)CSc2nnc(-c3ccco3)n2-c2ccc(C(=O)O)cc2)c1 | -2.73% | – | – |
| Cc1ccc(CCNC(=O)C2CCN(S(=O)(=O)N3CCCCC3)CC2)cc1 | 8.94% | 1.84 µM [rising, partial curve, poor fit] | – |
| Cc1nn2c(NCC(C)C)c3c(nc2c1-c1ccccc1)CCC3 | 23.8% | 7.31 µM [falling, single point] | – |
| CCC(c1ccccc1)c1nc(-c2cccnc2)no1 (centres undefined) | -3.78% | 16.4 µM [rising, single point] | – |
| COc1ccc(S(=O)(=O)N2CCC(C(=O)NCCCc3ccccc3)CC2)cc1 | 74.9% | – | 29.1 µM [rising, single point] |
| Cn1c(=O)c2c(c3ccccc31)OC(=O)CC2c1cccnc1 (centres undefined) | -3.73% | 3.66 µM [falling, single point] | – |
| O=C1C2ON(c3ccccc3)C(c3cccnc3)C2C(=O)N1c1ccc(Cl)c(Cl)c1 (centres undefined) | 30.3% | 7.31 µM [rising, partial curve, poor fit] | 2.59 µM [rising, full curve, poor fit] |
| CN1C(=O)c2ccccc2OC1(C)Cc1ccccc1 (centres undefined) | -69% | – | 0.326 µM [falling, partial curve, poor fit] |
| COc1ccc(S(=O)(=O)N2CCN(Cc3cccc(OC)c3OC)CC2)cc1 | – | 29.1 µM [rising, single point] | – |
| CCOc1ccccc1-c1nc(-c2cccc(Br)c2)no1 | 12.3% | 1.46 µM [rising, partial curve, poor fit] | – |
| COCC(=O)Nc1ccccc1NC(C)=O | -15.3% | 16.4 µM [falling, single point] | – |
| COc1ccc(C(CCN(Cc2ccc(OC)c(OC)c2)C(=O)CCl)c2ccccc2)cc1 (centres undefined) | -33% | 16.4 µM [falling, single point] | 23.1 µM [falling, single point] |
| Cc1cc(-c2ccccc2)nc(SC(C(=O)O)c2ccccc2)n1 (centres undefined) | – | 0.103 µM [rising, single point] | 0.146 µM [rising, single point] |
| O=C(CC1CC2CCC1C2)OCC(=O)c1c[nH]c2ccccc12 (centres undefined) | -70.7% | – | 4.61 µM [falling, full curve] |
| O=C1OC(CC(=O)N(Cc2nnc(-c3ccc(Cl)cc3)o2)C2CC2)c2ccccc21 (centres undefined) | -16.9% | 0.092 µM [falling, full curve, poor fit] | – |
| CCN(CC)CCCN1C(=O)c2oc3ccccc3c(=O)c2C1c1cc(OC)ccc1OC (centres undefined) | 31.4% | – | 11.6 µM [rising, single point] |
| COC(=O)Cc1cnc(NC(=O)CSc2nc(C(C)C)cc(=O)[nH]2)s1 | 8.33% | 6.51 µM [falling, single point] | – |
